The other results are listed elsewhere or left out. The main result of the screen is listed elsewhere. These columns were measured beside it and carry no call. Most of these compounds were active or inconclusive in the main read-out, so they are no random draw. Words in brackets tell the shape of the fitted curve; partial curves, single points and poor fits give uncertain potencies.
Experiment: qHTS Assay for Modulators of Lamin A Splicing
Details: HeLa LMNA splicing GFP/RFP minigene ratio, 48 h
Summary of the method: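 S3 HeLa stable clones carrying a lamin A-EGFP splicing minigene plus DsRed2 were seeded at 600 cells/well in Opti-MEM with 2% FBS, pin-dosed and incubated 48 h at 37°C. Acumen cytometry (488 nm) gave the GFP/RFP total-intensity ratio.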

[1] = measured here: RFP viability control channel
[2] = measured here: GFP splicing reporter channel

| Compound | AC50 [1] | AC50 [2] |
| --- | --- | --- |
| COc1ccc(NC(=O)c2oc3ccc(S(=O)(=O)N4CCCCC4)cc3c2C)cc1 | 0.141 µM [falling, full curve, poor fit] |  |
| CCc1ccc(-n2nc(C)c3c(C)cc(=O)n(Cc4nc(-c5ccccc5)oc4C)c32)cc1 | 0.562 µM [rising, partial curve, poor fit] |  |
| C=CC(=O)O | 35.5 µM [falling, single point] | 0.708 µM [falling, full curve, poor fit] |
| COc1ccc(-n2nnc3c(=O)n(Cc4cc(C)ccc4C)cnc32)cc1 |  | 0.0112 µM [falling, full curve, poor fit] |
| COc1ccccc1N1CCN(C(=O)c2cc(-c3ccc4c(c3)OCO4)on2)CC1 | 5.01 µM [rising, partial curve, poor fit] | 5.01 µM [rising, full curve] |
| CCN1CCN(CC(=O)Nc2c(C(=O)OC)[nH]c3cccc(Cl)c23)CC1 | 4.47 µM [falling, partial curve] |  |
| CN(Cc1ccccc1)S(=O)(=O)c1nnc(NC(=O)c2cccc(Cl)c2)s1 | 35.5 µM [falling, partial curve, poor fit] | 35.5 µM [falling, single point] |
| CCN(CC)C(=O)CCC(=O)Nc1ccc(C(=O)OC)cc1 | 3.55 µM [rising, single point] |  |
| O=C(/C=C/c1ccccc1)NC(=S)NNC(=O)c1cccnc1 | 35.5 µM [falling, partial curve] |  |
| Cc1nc(N2CCN(C(=O)c3ccco3)CC2)c2c3c(sc2n1)CC(C)CC3 (stereo unspecified) | 5.01 µM [falling, partial curve, poor fit] |  |
| Cc1cccc(NC(=O)CSc2nccn2Cc2ccc(F)cc2)c1C |  | 0.158 µM [rising, full curve, poor fit] |
| Cc1c(/C=N\NC(=O)C2COc3ccccc3O2)c2ccccc2n1C (stereo unspecified) | 0.794 µM [rising, full curve, poor fit] |  |
| Cc1cc(-c2nnc(CCC(=O)N3CCN(Cc4cccc(F)c4)CC3)o2)c(C)o1 | 35.5 µM [falling, partial curve, poor fit] |  |
| COc1ccc(S(=O)(=O)N2CCOC2CNC(=O)C(=O)NCCCn2ccnc2)cc1OC (stereo unspecified) | 0.316 µM [falling, partial curve] | 0.251 µM [falling, full curve, poor fit] |
| CCOc1ccccc1CNC(=O)c1cc2oc3ccccc3c2n1C | 10 µM [rising, partial curve] |  |
| CCC(NC(=O)c1ccccc1O)c1ccccc1 (stereo unspecified) | 22.4 µM [rising, single point] | 22.4 µM [rising, single point] |

Complete entries, quoted from the list. Order of values: AC50 [1] | AC50 [2]
`C=CC(=O)O` is listed as 35.5 µM [falling, single point] | 0.708 µM [falling, full curve, poor fit]
`CN(Cc1ccccc1)S(=O)(=O)c1nnc(NC(=O)c2cccc(Cl)c2)s1` is listed as 35.5 µM [falling, partial curve, poor fit] | 35.5 µM [falling, single point]

Source: PubChem BioAssay AID1487 (National Center for Advancing Translational Sciences (NCATS), 2009)
